Source: PubChem BioAssay AID1259254 (NCATS, 2017)
This is a random part of about 59,000 reagents. Over the whole deposit, about 1,550 (2.6%) were called active. 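G2 share is only a proxy for re-replication; each gene was hit by three separate siRNAs, and active genes were retested.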 Entries without a mark were called inactive. Not all columns of the deposit are shown. Not stated in the record: the amount of reagent.

Aim: 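Finding genes that stop cells copying their DNA twice in one cycle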 (primary screen)
Cells: human HCT116 colorectal cancer cells
Reagents: single siRNA against human genes
Timing: 3 days
Read-out: 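Nuclei stained with Hoechst and imaged; cell-cycle phase assigned by DNA content; G2 share scaled per plate, non-targeting siRNA 0%, GMNN siRNA 100%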
Direction: G2 robust z-score and G2 cells, % of GMNN control: higher = more G2 cells, more excess DNA replication
Rule for the call: 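An siRNA counts as active if its G2 robust z-score lies at least 5 MADs above the screen median; here such calls match roughly 38% of GMNN control or more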

After knock-down of BAX (BCL2 associated X, apoptosis regulator) [SID160723052], the screen gave G2 robust z-score -0.739; G2 cells, % of GMNN control -2.23.
BAX (BCL2 associated X, apoptosis regulator) [SID160723063] gave G2 robust z-score 0.022; G2 cells, % of GMNN control 3.12.
Knock-down of BAX (BCL2 associated X, apoptosis regulator) [SID160731627] resulted in: G2 robust z-score -0.581; G2 cells, % of GMNN control -1.12.
Silencing of TNNI1 (troponin I1, slow skeletal type) [SID160718212] came out at: G2 robust z-score -1.12; G2 cells, % of GMNN control -4.91.
Depletion of TNNI1 (troponin I1, slow skeletal type) [SID160718213] gave: G2 robust z-score 0.0248; G2 cells, % of GMNN control 3.14.
Knock-down of TNNI1 (troponin I1, slow skeletal type) [SID160718214] gave: G2 robust z-score -0.213; G2 cells, % of GMNN control 1.47.
After knock-down of SYTL3 (synaptotagmin like 3) [SID160754627], the record shows G2 robust z-score 2.12; G2 cells, % of GMNN control 17.9.
Against SYTL3 (synaptotagmin like 3) [SID160754629] the deposit lists G2 robust z-score -0.679; G2 cells, % of GMNN control -1.81.
SYTL3 (synaptotagmin like 3) [SID160754630] showed G2 robust z-score 0.926; G2 cells, % of GMNN control 9.48.
Depletion of LERFS [SID160767511] came out at: G2 robust z-score -0.76; G2 cells, % of GMNN control -2.38.
After knock-down of LERFS [SID160767512] the results were G2 robust z-score -0.531; G2 cells, % of GMNN control -0.772.
After knock-down of LERFS [SID160767513], the record shows G2 robust z-score -0.43; G2 cells, % of GMNN control -0.0598.
Knock-down of SETD4 (SET domain containing 4) [SID160741558] gave: G2 robust z-score -0.268; G2 cells, % of GMNN control 1.08.
Against SETD4 (SET domain containing 4) [SID160741559], the values are G2 robust z-score -0.128; G2 cells, % of GMNN control 2.07.
Silencing of SETD4 (SET domain containing 4) [SID160741560] gave: G2 robust z-score -0.389; G2 cells, % of GMNN control 0.23.
For LATS1 (large tumor suppressor kinase 1) [SID160721498], the entry reads G2 robust z-score -1.79; G2 cells, % of GMNN control -9.63.
With knock-down of LATS1 (large tumor suppressor kinase 1) [SID160721499] the results were G2 robust z-score -0.529; G2 cells, % of GMNN control -0.754.
Silencing of LATS1 (large tumor suppressor kinase 1) [SID160721500] gave: G2 robust z-score -0.392; G2 cells, % of GMNN control 0.209.
